# Primary screen of a compound library

Protein sequences, listed by entry. Tags and fused reporters are not part of them. Residues count along the entry.
UniProt A4I591, 1-473: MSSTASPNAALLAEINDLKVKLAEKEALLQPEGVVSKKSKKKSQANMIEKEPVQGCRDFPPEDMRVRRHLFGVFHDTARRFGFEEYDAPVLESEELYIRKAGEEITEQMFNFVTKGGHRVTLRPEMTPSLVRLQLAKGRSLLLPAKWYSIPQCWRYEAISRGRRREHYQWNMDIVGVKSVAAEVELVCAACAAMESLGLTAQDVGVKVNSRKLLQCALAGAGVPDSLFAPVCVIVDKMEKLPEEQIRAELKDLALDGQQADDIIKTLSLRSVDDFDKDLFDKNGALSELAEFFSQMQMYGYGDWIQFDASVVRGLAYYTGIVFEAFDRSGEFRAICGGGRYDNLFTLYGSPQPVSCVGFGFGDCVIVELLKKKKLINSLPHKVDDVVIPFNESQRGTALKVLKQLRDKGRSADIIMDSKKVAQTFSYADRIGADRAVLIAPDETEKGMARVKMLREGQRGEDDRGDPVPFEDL
UniProt P9WPC5, whole entry: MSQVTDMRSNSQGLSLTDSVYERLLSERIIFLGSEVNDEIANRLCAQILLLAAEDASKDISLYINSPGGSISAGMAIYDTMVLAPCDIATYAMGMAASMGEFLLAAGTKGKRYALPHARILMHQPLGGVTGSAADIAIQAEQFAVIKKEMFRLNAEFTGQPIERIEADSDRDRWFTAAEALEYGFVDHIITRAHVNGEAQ
UniProt P9WPC3, whole entry partner: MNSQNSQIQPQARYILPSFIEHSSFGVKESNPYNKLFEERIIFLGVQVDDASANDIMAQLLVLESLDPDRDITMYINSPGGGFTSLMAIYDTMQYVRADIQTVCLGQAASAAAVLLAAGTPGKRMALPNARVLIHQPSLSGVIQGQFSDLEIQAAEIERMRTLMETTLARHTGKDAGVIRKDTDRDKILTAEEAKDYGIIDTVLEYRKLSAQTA
UniProt Q4DA54, 1-478: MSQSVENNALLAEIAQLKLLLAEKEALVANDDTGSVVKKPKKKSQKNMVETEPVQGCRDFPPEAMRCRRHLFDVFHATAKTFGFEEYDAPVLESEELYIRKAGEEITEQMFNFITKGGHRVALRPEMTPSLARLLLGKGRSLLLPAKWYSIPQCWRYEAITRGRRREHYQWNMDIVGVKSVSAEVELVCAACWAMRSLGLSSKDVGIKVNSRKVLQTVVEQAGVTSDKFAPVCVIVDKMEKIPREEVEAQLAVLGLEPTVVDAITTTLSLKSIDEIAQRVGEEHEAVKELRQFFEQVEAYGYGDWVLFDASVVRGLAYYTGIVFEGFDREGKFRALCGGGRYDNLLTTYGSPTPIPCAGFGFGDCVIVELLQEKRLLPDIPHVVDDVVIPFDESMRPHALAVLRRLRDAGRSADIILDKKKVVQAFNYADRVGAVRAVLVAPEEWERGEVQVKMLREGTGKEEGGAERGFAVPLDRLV

The values are deposited in ChEMBL (CHEMBL3988442, “University of Dundee, Small-Polar-MMV Screening Library” (2021)).

Toxoplasma: 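Assay of Toxoplasma gondii numbers, read through their beta-galactosidase reporter with a colour substrate. Compounds at 10 µM. The record gives no direction; the compounds picked for IC50 retests had high values, so higher reads as fewer parasites. About 67,000 compounds were tested under these conditions; 0.38% (about 260) showed 50% or more at least once.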
T. brucei: 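Whole-parasite assay of Trypanosoma brucei over 72 hours; the read-out is not stated. Compounds at 30 µM. Higher reads as stronger inhibition (inferred: compounds with an IC50 in retests scored well above the rest). Values scatter widely below zero; nearly all retest evidence comes from the higher of the two concentrations used. Of about 64,000 compounds tested this way, about 940 (1.5%) reached 50% or more in at least one test.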
LiHisRS: 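Histidine-tRNA ligase, Leishmania infantum (UniProt A4I591). Enzyme assay of histidyl-tRNA synthetase; the read-out is not stated. Concentration: 30 µM. The record gives no direction; compounds that gave an IC50 in retests scored well above the rest, so higher reads as stronger inhibition. The assay is labelled LdHisRS but filed under L. infantum. About 69,000 compounds were tested under these conditions; 0.6% (about 410) showed 50% or more at least once.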
ClpP1P2: 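Protease assay of ClpP1P2, read by the AMC dye that it sets free. Target: ClpP1P2, Mycobacterium tuberculosis (UniProt P9WPC5 and UniProt P9WPC3). Concentration: 50 µM. Higher reads as stronger inhibition, judged from the few compounds that gave an IC50. Most other retested compounds had strongly negative values. Of about 69,000 compounds tested this way, about 10 (0.015%) reached 50% or more in at least one test.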
TcHisRS: 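Histidine-tRNA ligase, Trypanosoma cruzi CL Brener (UniProt Q4DA54). Enzyme assay of histidyl-tRNA synthetase; the read-out is not stated. Compounds at 30 µM. Higher reads as stronger inhibition (inferred: compounds with an IC50 in retests scored well above the rest). Of about 69,000 compounds tested this way, about 31 (0.045%) reached 50% or more in at least one test.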

Values are the deposited “Percent Effect”, in %.
The controls that fix the scale are not given in the record; negative values are as filed.
This is an unselected part of the compounds tested.
A dash means the value is not listed here; it may have been measured.

Compound,Toxoplasma,T. brucei,LiHisRS,ClpP1P2,TcHisRS
O=C(O)C(F)(F)F.[H][C@@]12CCCO[C@]1([H])[C@@H](Oc1cccnc1)CN2C(=O)CC1CCCC1,-20.05,-49.5,-,-,-
CCc1nnc2n1CCN(C(=O)C(C)COCc1ccccc1)C2 (configuration not stated),1.318,48.8,22.73,-2.925,-0.7576
O=C(NCC1CC1)[C@H]1C[C@@H]2CCN(Cc3nccs3)C[C@@H]2O1,-,-,16.54,0.2542,3.867
CN(C)CC(=O)N1CCc2ncnc(-c3cncnc3)c2CC1,-,-,10.53,12.84,5.376
COc1c(CNCc2cccc(Cn3cncn3)c2)c(C)nn1C,-24.32,0.4647,17.86,-12.27,6.395
O=C(Cc1ccco1)N1C[C@@H]2COC[C@]2(COCC2CCOCC2)C1,-,-,20,-3.263,7.216
CC(=O)N1CCC2(CC1)COC(COCc1ccccn1)C2 (configuration not stated),-,-,17.11,-10.03,9.783
CCn1c(C)cc(C(=O)N2C[C@@H](C(=O)O)[C@H](c3ccccc3)C2)c1C,0.5917,-18.74,27.42,-4.968,4.386
c1cnc(N2CCC3(CCCN(Cc4ccncc4)C3)CC2)nc1,-,-,22.94,3.054,-0.8403
O=C(C1CCOCC1)N1C[C@H]2CCC[C@@]2(COc2ccccn2)C1,-,-,0,5.88,5.785
CC(=O)N1C[C@H]2CNC[C@@]2(C(=O)NCCOc2ccccc2F)C1,-,-,21.31,-8.309,3.03
CCS(=O)(=O)N1CCN(CC2CC2)c2ncccc2C1,18.91,-47.38,7.547,-1.587,8.889
COCC(=O)N1CCC2(CCN(Cc3ccccn3)CC2)CC1,-13.62,16.99,15.69,-8.582,1.639
O=C(O)C(F)(F)F.[H][C@@]12CCN(S(=O)(=O)C3CC3)C[C@]1(COc1ncccc1F)CCO2,-3.263,-174.9,-,-,-
Cc1nc(C2(NCC(=O)NC(=O)Nc3ccccc3)CCCCC2)no1,6.121,-12.57,4.494,2.602,6.533
COc1ccc(C(=O)NC2COc3ccccc3C2)cc1OCC(=O)O (configuration not stated),7.111,-20.59,11.67,-0.6621,7.843
COC(=O)c1sccc1S(=O)(=O)N1CCC(Oc2cnccn2)CC1,-7.466,-3.828,4.959,-6.005,3.061
N#CC(NC(=O)CS(=O)(=O)C1CCCC1)c1ccc(F)cc1F (configuration not stated),-2.778,-25.82,11.29,-7.694,4.124
CO[C@@H]1CC[C@H]2[C@H]1OCCN2CC1CC1,-,-,-2.469,-5.585,-1.84
COc1ccc(-c2noc([C@@H](C)NC(=O)CC(C)C)c2C(=O)O)cc1,15.55,-0.378,17.57,-1.103,0
CC(CCNC(=O)NCCNc1cnccn1)c1ccccc1 (configuration not stated),2.784,-7.722,18.8,-15.94,-2.703
CCN1CCN(C2CCN(CCOc3ccc(F)cc3)CC2)C1=O,3.57,-1.361,3.478,-6.9,4.598
CC1(c2ccccc2)CCCN(Cc2nnc(-c3cccnc3)o2)C1 (configuration not stated),-4.789,-13.91,28.21,-2.555,12.22
N#CC1(C(=O)N2CCN(c3nccs3)CC2)CCCCC1,-10.16,-13.14,10.4,11.09,-0.3802
COc1nccnc1N1CCCC2(C1)C(=O)N(C)c1ccccc12 (configuration not stated),-5.626,-5.022,24.1,-5.623,-11.6
CCS(=O)(=O)NCC(=O)NC(c1cc(C)sc1C)C(C)C (configuration not stated),3.024,5.087,13.27,-8.828,3.097
Cc1cc(N2CCN(C3CCSCC3)CC2)n2nc(C)c(C)c2n1,4.314,-49.74,8.065,2.311,5.102
O=C(O)C(F)(F)F.[H][C@@]12CCCO[C@]1([H])[C@@H](OCC(C)C)CN2S(=O)(=O)c1cn(C)cn1,-5.165,5.482,-,-,-
CC(=O)Nc1ccc2c(c1)CN(C(=O)c1ccco1)CC2,11.68,-7.106,13.7,18.68,10
CCOC1COC2(CCN(Cc3cccc(C)n3)CC2)C1 (configuration not stated),-,-,7.547,-10.51,5.556
COc1cc(CCC(=O)NC2CCN(C)CC2)ccc1OCC(F)(F)F,1.626,16.84,9.649,-12.57,2.312
COC(=O)c1cc(C(=O)N2CCC(OC)CC2)n(-c2ccccc2)n1,-9.303,11.04,17.86,-30.26,6.509
CN(Cc1ccncc1)C(=O)c1ccc(F)c(NS(C)(=O)=O)c1,10.76,-30.85,28.57,3.686,9.091
Cc1nccn1CCCn1cncc1-c1ccc2c(c1)CC(C)N2C (configuration not stated),-,-,65.77,-22.28,22
Cc1nc(CN2C(=O)C[C@@H]3[C@@H]2CCN3CC2CCOCC2)cs1,-,-,3.191,17.53,7.035
Cc1ccc(C(=O)Nc2cnn(CC(=O)NC3CCCC3)c2)c(=O)[nH]1,-1.773,-40.61,17.74,-9.375,1.02
O=C(O)C(F)(F)F.[H][C@@]12COC[C@@H](C(=O)N3CCC(F)CC3)[C@]1([H])CN(C1CCCC1)C2,1.206,-6.451,-,-,-
Cc1cc(C(=O)N2C[C@@H](C(=O)O)[C@H](c3ccccc3C)C2)c(C)o1,-1.01,-40.95,5.66,4.817,3.39
Cc1nc(CN2C(=O)COC3(CCN(Cc4nccs4)CC3)C2C)cs1.O=C(O)C(F)(F)F (configuration not stated),9.06,15.24,-,-,-
COCCn1cncc1-c1nc2c([nH]1)CC(C)(C)CNC2=O,-0.8739,-40.14,18.57,1.869,8.511
Cc1cc(N2CCC3(CCCN(C4CCOCC4)C3=O)C2)ccn1 (configuration not stated),4.455,-40.39,3.191,-14.65,2.01
COc1ccc(Cl)cc1S(=O)(=O)N(C)CC(=O)Nc1ccccc1,20.17,-50.01,1.639,-8.577,-3.863
Cc1nc([C@H]2C[C@@H]3CCN(C(=O)c4ccnnc4)C[C@H]3O2)sc1C,-,-,25.66,-2.109,8.602
Cn1cc(CN2C[C@@H]3COC[C@]3(CNC(=O)c3ccccc3)C2)cn1,-,-,23.08,1.209,9.756
COc1cc(CCC(=O)N2CCC(c3cncc(C)n3)CC2)on1,-0.7944,-10.99,4.225,-9.693,1.515
NCc1n[nH]c(-c2cccc(F)c2)n1,5.757,-1.35,10.75,18.38,6.736
COc1cccc2ccc(CN3CCN(c4ncccc4C)CC3)nc12,-3.017,-10.33,28.89,-4.929,14.29
O=C(NCC1(O)CCc2ccccc2C1)c1cccs1 (configuration not stated),-15.35,-23.7,5.983,0.4527,5.556
CCCn1cc(C(=O)N(C)Cc2nc(-c3ccccn3)no2)c(C)n1,-5.066,-2.535,22.33,-13.77,6.224
CCOCCCC(=O)NS(=O)(=O)c1ccc(C)s1,-5.915,-48.01,-2.564,-3.185,4.444
Cc1occc1C(=O)N1CCC2(CCCN(CC3CCC3)C2=O)C1 (configuration not stated),-1.338,-9.487,20.19,-4.528,4.065

Once more, the final 5:

Result for COc1cccc2ccc(CN3CCN(c4ncccc4C)CC3)nc12 was Toxoplasma: -3.017%; T. brucei: -10.33%; LiHisRS: 28.89%; ClpP1P2: -4.929%; TcHisRS: 14.29%.
Result for O=C(NCC1(O)CCc2ccccc2C1)c1cccs1 (configuration not stated) was Toxoplasma: -15.35%; T. brucei: -23.7%; LiHisRS: 5.983%; ClpP1P2: 0.4527%; TcHisRS: 5.556%.
Result for CCCn1cc(C(=O)N(C)Cc2nc(-c3ccccn3)no2)c(C)n1 was Toxoplasma: -5.066%; T. brucei: -2.535%; LiHisRS: 22.33%; ClpP1P2: -13.77%; TcHisRS: 6.224%.
Result for CCOCCCC(=O)NS(=O)(=O)c1ccc(C)s1 was Toxoplasma: -5.915%; T. brucei: -48.01%; LiHisRS: -2.564%; ClpP1P2: -3.185%; TcHisRS: 4.444%.
Result for Cc1occc1C(=O)N1CCC2(CCCN(CC3CCC3)C2=O)C1 (configuration not stated) was Toxoplasma: -1.338%; T. brucei: -9.487%; LiHisRS: 20.19%; ClpP1P2: -4.528%; TcHisRS: 4.065%.